Protein sequences, listed by entry. Tags and fused reporters are not part of them. Residues count along the entry.
UniProt P52948, residues 1-480: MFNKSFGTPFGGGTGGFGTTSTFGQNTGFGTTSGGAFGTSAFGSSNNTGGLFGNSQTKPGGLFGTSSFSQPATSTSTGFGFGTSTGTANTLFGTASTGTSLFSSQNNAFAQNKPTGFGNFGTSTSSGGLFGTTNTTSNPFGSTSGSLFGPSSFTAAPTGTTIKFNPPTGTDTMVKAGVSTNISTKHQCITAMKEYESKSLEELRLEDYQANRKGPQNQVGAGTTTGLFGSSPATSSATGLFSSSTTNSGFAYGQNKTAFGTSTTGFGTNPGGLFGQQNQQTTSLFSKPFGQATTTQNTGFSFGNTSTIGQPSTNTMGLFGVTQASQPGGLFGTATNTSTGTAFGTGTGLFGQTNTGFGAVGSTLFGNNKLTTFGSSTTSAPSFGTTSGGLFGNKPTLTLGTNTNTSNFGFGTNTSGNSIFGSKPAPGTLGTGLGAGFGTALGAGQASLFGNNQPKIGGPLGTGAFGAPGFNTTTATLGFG
UniProt P49790, residues 901-1475: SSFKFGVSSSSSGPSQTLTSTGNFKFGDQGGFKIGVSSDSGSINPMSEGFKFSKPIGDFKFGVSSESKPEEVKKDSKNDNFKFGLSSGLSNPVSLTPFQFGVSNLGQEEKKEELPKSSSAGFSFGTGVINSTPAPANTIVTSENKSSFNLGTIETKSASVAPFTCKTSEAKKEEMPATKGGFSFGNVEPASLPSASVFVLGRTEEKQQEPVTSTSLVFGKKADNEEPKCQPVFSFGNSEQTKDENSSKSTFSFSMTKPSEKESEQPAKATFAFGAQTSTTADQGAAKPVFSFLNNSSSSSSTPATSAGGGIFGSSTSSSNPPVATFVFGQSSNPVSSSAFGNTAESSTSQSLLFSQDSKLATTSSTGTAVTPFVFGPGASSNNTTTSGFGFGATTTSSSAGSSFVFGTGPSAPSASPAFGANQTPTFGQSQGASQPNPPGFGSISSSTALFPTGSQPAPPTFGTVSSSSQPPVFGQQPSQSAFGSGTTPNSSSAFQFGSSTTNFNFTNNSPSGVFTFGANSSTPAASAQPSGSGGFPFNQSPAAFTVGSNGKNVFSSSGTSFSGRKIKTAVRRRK
UniProt P35658, residues 1400-2090: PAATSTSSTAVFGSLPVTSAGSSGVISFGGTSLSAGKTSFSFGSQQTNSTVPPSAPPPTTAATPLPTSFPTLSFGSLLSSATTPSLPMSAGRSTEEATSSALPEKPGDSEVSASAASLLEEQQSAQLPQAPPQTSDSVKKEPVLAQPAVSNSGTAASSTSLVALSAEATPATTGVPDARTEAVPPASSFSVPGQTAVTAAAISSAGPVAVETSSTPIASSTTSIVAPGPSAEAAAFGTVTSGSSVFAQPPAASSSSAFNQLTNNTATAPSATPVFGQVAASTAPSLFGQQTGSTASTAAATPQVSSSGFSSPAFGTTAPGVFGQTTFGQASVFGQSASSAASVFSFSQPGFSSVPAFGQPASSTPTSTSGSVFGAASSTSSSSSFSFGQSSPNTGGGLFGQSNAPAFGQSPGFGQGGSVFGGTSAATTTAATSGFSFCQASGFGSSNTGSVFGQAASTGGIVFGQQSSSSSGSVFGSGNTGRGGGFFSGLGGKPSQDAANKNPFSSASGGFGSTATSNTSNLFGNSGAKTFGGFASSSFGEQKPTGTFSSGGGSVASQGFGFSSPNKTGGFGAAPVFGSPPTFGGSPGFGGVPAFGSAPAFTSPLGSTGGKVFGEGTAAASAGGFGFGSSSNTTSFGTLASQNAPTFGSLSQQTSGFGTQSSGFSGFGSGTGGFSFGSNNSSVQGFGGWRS

According to PMC11254768:

Target: Ig27WT (titin's 27th immunoglobulin (Ig) domain), 6x His at the C-terminus (UniProt Q8WZ42)
Experiment: far-Western, overlay or dot blot; purified I27WT-6His and (GS)4-I27WT-6His spotted in triplicate on nitrocellulose, blocked with 3% BSA in PBS-T 16 h at 4 °C, incubated overnight at 4 °C with 750 OD units of bacterial lysate with overexpressed StrepII-tagged Nup FG-rich domain; detected with Strep-Tag II antibody HRP conjugate; intensity normalised by a control membrane (no Nup, anti-His-Tag antibody); five experiments; only the target purified

Row | Substance | binding
1 | StrepII-tagged FG-rich domain of Nup98 (residues 1-480) (from UniProt P52948 1-480) (domain or fragment) | no binding (tested: 750 OD units of bacterial lysates)
2 | StrepII-tagged FG-rich domain of Nup153 (residues 901-1475) (from UniProt P49790 901-1475) (domain or fragment) | binds
3 | StrepII-tagged FG-rich domain of Nup214 (residues 1400-2090) (from UniProt P35658 1400-2090) (domain or fragment) | no binding (tested: 750 OD units of bacterial lysates)

No constants are given. Whether binding was seen depends on the method and setting. Binding can be weak; no strength is given.
